# Results of single-concentration screens

Data taken from ChEMBL document CHEMBL3988442, “University of Dundee, Small-Polar-MMV Screening Library” (2021).

Each number is a percent effect as filed.
The controls that fix the scale are not given in the record; negative values are as filed.
The compounds are a random part of those screened.
Two or more numbers in one place are separate tests of the same structure; such repeats can differ widely.

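Phenotypic screen: M. tuberculosis growth, cholesterol and DPPC medium, 4 days; the read-out is not stated. Tested at 50 µM. Higher reads as more growth inhibition (inferred: compounds with an IC50 in retests scored well above the rest). Of about 69,000 compounds tested this way, about 370 (0.54%) reached 50% or more in at least one test.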

structure,percent effect
C[C@@H]1CN(C(=O)Cn2ccc3ncccc3c2=O)C[C@H](C)O1,3.509
O=C1NC(c2cnc(C3CCC3)s2)Nc2ccccc21 (centres undefined),-13.14
CCCn1nc2c(cc1=O)CN(c1ncnc3sccc13)CC2,4.657
CC(C)(C)c1n[nH]c(C2CN(C(=O)c3cc(C4CC4)[nH]n3)CCO2)n1 (centres undefined),10.64
COCCNS(=O)(=O)c1ccc(Cl)c(C(=O)N(C)Cc2sccc2C)c1,-3.202
Cn1c(N)nnc1SC1CCCN(c2ccccc2F)C1=O (centres undefined),10.87
O=C(O)C(F)(F)F.O=C(c1nc2c(o1)CN(CC1CCC1)C2)N1CCCC1,0.1006
CCc1ccc(S(=O)(=O)N2CCCn3ncnc32)s1,11.07 & 0.8046
CN1CC(c2ccccc2)CC12CCN(C(=O)c1ccncc1)CC2 (centres undefined),12.48
CN(C)c1cc(C(=O)N2CCCCC2Cn2cccn2)ccn1 (centres undefined),-2.66
CNc1cc2c(nn1)CCN(C(=O)c1ccc3c(c1)CCC3)C2,1.949
COCCOc1ccc(S(=O)(=O)Nc2cccnc2O)cc1C,-6.807 & 19.14
Cn1nnc2c1C(COCc1ccccn1)CN(C(=O)c1ccsc1)C2.O=C(O)C(F)(F)F (centres undefined),3.833
FCCOc1cccc(NCc2c[nH]nc2-c2cccnc2)c1,5.74
CCc1ccc2nc(C)cc(C(=O)NC3CCNC3=O)c2c1 (centres undefined),-5.526
CCCNC(=O)CNc1ccc(C(=O)N2CCCCC2C)cc1C (centres undefined),-31.17
Cc1cn2c(n1)CCC(NC(=O)CCOc1cccc(F)c1)C2 (centres undefined),5.522 & 6.728
[H][C@]12CCN(C(=O)Cc3ccc(OC)cc3)[C@@]1([H])CCC(=O)N2,-2.207
O=C(O)C(F)(F)F.O=C(O)C(F)(F)F.[H][C@]12CCCC(N3CCN(c4ncccn4)CC3)[C@@]1([H])CN(C(C)=O)C2 (some centres undefined),-18.21
O=C(Nc1nccs1)NC1CCN(CC2CCCC2)CC1,11.45
O=C1CC(c2ccc(C(=O)O)cc2)c2ncn(-c3ccc(Cl)cc3)c2N1 (centres undefined),-18.07 & -21.39
Cc1cc(CNCCNS(C)(=O)=O)sc1Br,-2.025
Cl.O=C(CN1CCC[C@H]1C(=O)O)NCCOc1cccc(Cl)c1,-13.23
FC(F)(F)CCN(Cc1ccon1)C1CCC1,-15.41
CCOC(=O)C1CCCN(Cc2c[nH]nc2-c2cc3ccccc3o2)C1 (centres undefined),-8.6
CC(=O)c1cc(CN2C[C@@H](NS(=O)(=O)N(C)C)[C@H](C(C)C)C2)cs1,-7.043 & -12.25
CCc1ccc(C(O)CN2CCN(c3cccc(OC)c3)CC2)cc1 (centres undefined),6.18
O=S1(=O)CCN(CCCc2ccc(Cl)cc2)CC1,-10.18
Cc1cnc(C(=O)N2CCCC(c3nccn3Cc3cscn3)C2)cn1 (centres undefined),-6.923 & -1.573
O=C(O)C(F)(F)F.O=C(O)C(F)(F)F.[H][C@@]12CCCO[C@]1([H])[C@H](N(C)Cc1ccco1)CN(Cc1cccs1)C2,3.317
c1ccc(Cc2noc(CN3CCCCC3C3OCCO3)n2)cc1 (centres undefined),-10.5
COc1ccc(N2CCN(Cc3nc(CSC)no3)CC2=O)cc1,-17.83
O=C1CCSCC(C(=O)N2CCC3(CC2)OCCO3)N1 (centres undefined),-25.63
Cc1nn(C)c(C)c1C1CCCN1CC(=O)NCc1ccco1 (centres undefined),-27.82
O=C(O)C(F)(F)F.O=C(O)C(F)(F)F.c1csc(CN2CCC3(CC2)CCN(CC2CCOCC2)C3)n1,-4.833
CCc1nc(C2CCCN2C(=O)CCCOc2cccc(F)c2)no1 (centres undefined),81.2 & -9.641
CCc1cnc(NCC(c2ccncc2)N2CCOCC2)nc1 (centres undefined),-18.65 & -7.606
CS(=O)(=O)c1ccc(CNC[C@H]2COCc3nc4ccccc4n32)cc1,19.82
COCC(=O)N1CCC(c2cc(-c3ccc(N)nc3)cc(C)n2)CC1,11.66
Cc1cc(NC(=O)N(CCO)Cc2ccsc2)no1,4.946
Cc1cc(=O)c2ccccc2n1CC1CCCN(C)C1 (centres undefined),10.98
CC(C)c1nc(C2CCCN2CC(=O)Nc2cccnc2)no1 (centres undefined),12.74
CCC(CC)CN1CCC(n2cc(C3CCCC3)nn2)CC1,9.703 & 29.75
CNC(=O)CN(C)C1CCN(c2ccc(Cl)cc2)CC1,13.07
CN(C)Cc1cnc2n1CCN(C(=O)NCc1ccccc1)CC2.O=C(O)C(F)(F)F,-11.81
CC(=O)Nc1nc(C2CCN(C(C)C)CC2)cs1,4.88
Cc1nocc1C(=O)N1CCc2c(CN(C)C)nn(C)c2C1,0.8275 & -2.838
O=C(NCc1ccc2c(c1)CCCO2)c1ccc(C2CCNC2)cc1 (centres undefined),6.942
Cc1cccc(C(C)(C)NC(=O)CS(=O)(=O)CC(C)C)c1,-14.39
COCC1CN(S(=O)(=O)N(C)C)Cc2cnn(CC3CCCC3)c21.O=C(O)C(F)(F)F (centres undefined),-7.405
O=C(NCc1ccccc1-n1cccn1)N1CCC(N2CCCC2)C1 (centres undefined),-1.082
Cc1nc(CNC2CCc3ncnn3C2)oc1C (centres undefined),-11.53
[H][C@@]12CCN(C(=O)c3cnoc3C)C[C@]1([H])[C@@H](CN1CCCC1)OC2,-12.35
Cc1nc(Nc2ncccn2)cc(C2CCCN2C)n1 (centres undefined),5.601
O=C(c1ccc2nccn2c1)N1CCCC1c1noc(C2CC2)n1 (centres undefined),-12.08 & -3.8
O=C(CN1CCCc2c(F)cc(Br)cc21)N1CCN(C(=O)C2CC2)CC1,-10.31
CCNC(=O)CNS(=O)(=O)Cc1cc(-c2ccccc2)no1,-0.9709
CC(C)(C)OC(=O)N1CC(=O)N(Cc2ccco2)CC(O)C1 (centres undefined),0.3331
Cc1ccccc1-n1ncc2c(=O)n(CCN3CCCCC3)cnc21,-10.76
N#Cc1cccc(S(=O)(=O)N2CCCCC2C(N)=O)c1 (centres undefined),-2.586 & -7.745
CCC(C)(NCC(=O)NC(=O)NC)c1nccs1 (centres undefined),-9.514 & -0.4682
Nc1no[n+]([O-])c1C(=O)NCc1cccnc1,-16.94
CN1CCCN(c2cnn(Cc3ccc(C(C)(C)C)cc3)c(=O)c2)CC1,21.49
COc1ccc(-c2noc(Cn3cc(C)cn3)n2)c(OC)c1OC,-17.11 & 1.426

Once more, the final 8:

structure,percent effect
CCNC(=O)CNS(=O)(=O)Cc1cc(-c2ccccc2)no1,-0.9709
CC(C)(C)OC(=O)N1CC(=O)N(Cc2ccco2)CC(O)C1 (centres undefined),0.3331
Cc1ccccc1-n1ncc2c(=O)n(CCN3CCCCC3)cnc21,-10.76
N#Cc1cccc(S(=O)(=O)N2CCCCC2C(N)=O)c1 (centres undefined),-2.586 & -7.745
CCC(C)(NCC(=O)NC(=O)NC)c1nccs1 (centres undefined),-9.514 & -0.4682
Nc1no[n+]([O-])c1C(=O)NCc1cccnc1,-16.94
CN1CCCN(c2cnn(Cc3ccc(C(C)(C)C)cc3)c(=O)c2)CC1,21.49
COc1ccc(-c2noc(Cn3cc(C)cn3)n2)c(OC)c1OC,-17.11 & 1.426